Paper PMC13489962, “Small-molecule modulation of β-arrestins” (Nature, 2026)
Results are given in words; binding and its absence hold for the method and conditions named. For some assays here: In cells and extracts the contact can be indirect. Some binding calls cover weakened binding; strength is not graded here.

Sequences of proteins named here, by UniProt entry; tags and fusion partners are left off.
UniProt P29066: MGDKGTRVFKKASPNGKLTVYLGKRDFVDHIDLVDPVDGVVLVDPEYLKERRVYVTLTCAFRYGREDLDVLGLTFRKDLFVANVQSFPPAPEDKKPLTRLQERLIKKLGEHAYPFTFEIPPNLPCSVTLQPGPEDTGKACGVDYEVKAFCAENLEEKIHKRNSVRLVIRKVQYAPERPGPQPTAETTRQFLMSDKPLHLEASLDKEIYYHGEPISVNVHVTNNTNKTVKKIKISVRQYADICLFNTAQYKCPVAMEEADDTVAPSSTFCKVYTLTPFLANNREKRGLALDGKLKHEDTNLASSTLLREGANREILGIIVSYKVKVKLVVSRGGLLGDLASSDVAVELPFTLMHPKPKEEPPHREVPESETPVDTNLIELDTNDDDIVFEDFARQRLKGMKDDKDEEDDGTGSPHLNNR
UniProt P53779: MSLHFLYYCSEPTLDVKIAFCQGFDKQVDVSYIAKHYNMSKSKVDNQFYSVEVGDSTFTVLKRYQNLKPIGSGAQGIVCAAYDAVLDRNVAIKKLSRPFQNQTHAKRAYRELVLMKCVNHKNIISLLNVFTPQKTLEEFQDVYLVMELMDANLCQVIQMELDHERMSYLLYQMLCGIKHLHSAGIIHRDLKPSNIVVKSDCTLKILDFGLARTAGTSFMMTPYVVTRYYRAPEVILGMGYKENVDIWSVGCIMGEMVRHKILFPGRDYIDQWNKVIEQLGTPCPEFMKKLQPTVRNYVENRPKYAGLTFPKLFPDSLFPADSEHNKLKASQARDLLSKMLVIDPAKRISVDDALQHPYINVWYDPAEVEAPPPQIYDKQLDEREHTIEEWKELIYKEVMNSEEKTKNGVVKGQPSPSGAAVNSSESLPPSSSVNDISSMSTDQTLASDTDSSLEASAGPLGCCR

What was measured:
[1] = target: βARR1–Flag (UniProt P29066); assay: pull-down; βARR1–Flag (5 μM) as bait, with or without 30 min pre-incubation with 20-fold molar excess of Cmpd-5, Cmpd-46 or Cmpd-64 at room temperature; 15 μM SRC or JNK3 added; anti-Flag M2 affinity gel 1 h at room temperature; washes in 20 mM HEPES pH 7.5, 100 mM NaCl; Flag peptide elution; western blot; both purified
[2] = target: angiotensin receptor (AT1R) in CHO-K1 PathHunter cells (UniProt P30556); assay: split reporter; PathHunter assay in CHO-K1 cells; modulators (50 μM, 30 min) or DMSO before ANGII (1 μM, 1 h)

binding [1]	binding [2]	Substance
binds		JNK3 (from UniProt P53779 1-464) (enzyme)
	binds	βARR2 in CHO-K1 PathHunter cells (from UniProt P32121 1-409)
